Source: patent US10351534B2, “Use of 3-carboxy-N-ethyl-N,N-dimethylpropan-1-aminium salts in the treatment of cardiovascular disease” (JSC GRINDEKS, priority 2011, dated 2019)
At least one structure is not confirmed: it was looked up by name or label, or the drawing left a doubt.

Test system: isolated rat heart
Test: Isolated rat heart infarction study (after p.o. treatment)
Type: in vivo
Details: 20 mg/kg; isolated rat heart infarction model
Description: Fifty male, 10 weeks old Wistar rats weighing 200-250 g were housed under standard conditions (21-23° C., 12 h light-dark cycle) with unlimited access to food (R3 diet, Lactamin AB, Sweden) and water.
Rats were adapted to local conditions for two weeks before the start of treatment. Meldonium dihydrate at a dose of 20 mg/kg, gamma-butyrobetaine at a dose of 20 mg/kg and 3-carboxy-N-ethyl-N,N-dimethylpropan-1-aminium salts at dose of 20 mg/kg were administered p.o. daily for 8 weeks. Control rats received water.
The isolated rat heart experiment was performed essentially as described earlier (Liepinsh et al., J. Cardiovasc. Pharmacol. 2006; 48(6):314-9). Twenty-four hours after the last drug administration hearts were excised and retrogradely perfused via the aorta at a constant pressure with oxygenated Krebs-Henseleit buffer at 37° C. The heart rate, left ventricle end-diastolic pressure and left ventricle developed pressure were continuously recorded. Coronary flow was measured using an ultrasound flow detector (HSE) and the PowerLab 8/30 system from ADInstruments. […] Computerized planemetric analysis of Sony A900 photographs was performed using Image-Pro Plus 6.3 software to determine the area at risk and area of necrosis expressed as a % of the left ventricle. […]

C[N+](C)(C)NCCC(=O)[O-] [Meldonium dihydrate, 3-(2,2,2-Trimethylhydrazinium) propionate dihydrate, reference compound]
therapeutical (cardioprotective) effect on infarct size: no therapeutical effect
